{
  "sequences": {"note": "Amino acid sequences for entries named in this document (tags omitted). Residues count along the entry.", "UniProt Q7MX71, 7-399": "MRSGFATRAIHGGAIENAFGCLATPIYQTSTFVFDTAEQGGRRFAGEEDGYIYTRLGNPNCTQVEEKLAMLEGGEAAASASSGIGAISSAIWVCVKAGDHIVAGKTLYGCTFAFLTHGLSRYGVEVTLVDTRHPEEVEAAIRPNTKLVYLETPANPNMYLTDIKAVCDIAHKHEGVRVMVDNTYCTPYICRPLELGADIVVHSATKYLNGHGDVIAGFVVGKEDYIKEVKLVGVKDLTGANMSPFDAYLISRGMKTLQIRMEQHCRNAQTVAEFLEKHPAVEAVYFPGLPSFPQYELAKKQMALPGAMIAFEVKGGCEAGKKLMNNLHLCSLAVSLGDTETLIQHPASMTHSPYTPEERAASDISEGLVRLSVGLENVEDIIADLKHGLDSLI"},
  "source": "patent US20120308548A1",
  "about": "(NOVA SOUTHEASTERN UNIVERSITY, priority 2010, published 2012)",
  "note": "Some results were stated once for a whole list of compounds, not compound by compound.",
  "data": [
    {"molecular_target": "T1, MEGL (Porphyromonas gingivalis, UniProt Q7MX71)", "T1 construct": "His tag (N, cleaved yes); made in house", "type": "biochemical", "settings": "analogs of methionine", "description": "This assay uses C^14-labeled methionine and recombinant, purified, HIS-TAG cleaved and further purified MEGL protein. The MEGL enzyme forms very specific radiolabeled nonvolatile C^14-labeled α-ketobutyrate. Further the products are separated by a silica gel-G thin layer chromatography (TLC) method using 75% acetonitrile and 25% 20 mM phosphate buffer (pH 7.0) solvent system.\nFurther characterization of the enzyme was made using these protocols.", "values": [
      {"smiles": "N[C@@H](CCSC[C@H](N)C(=O)O)C(=O)O", "note": "[L-cystathionine]", "lyase activity of analogs": "less than 5%"},
      {"smiles": "N[C@@H](CCOC(=O)CCC(=O)O)C(=O)O", "note": "[o-succinyl-homoserine, O-succinyl L-homoserine]", "lyase activity of analogs": "less than 5%"},
      {"smiles": "N[C@@H](CS)C(=O)O", "note": "[L-cysteine]", "lyase activity of analogs": "less than 5%"}
    ]}
  ]
}
